Taken from: PubChem BioAssay AID1259254 (NCATS, 2017)

Screen: 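Gene knock-downs that lead to re-replication, shown by excess G2 DNA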 (primary screen)
Cell system: human HCT116 colorectal cancer cells
Reagents: single siRNA against human genes
Timing: 3 days
Detection: 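Nuclei stained with Hoechst and imaged; cell-cycle phase assigned by DNA content; G2 share scaled per plate, non-targeting siRNA 0%, GMNN siRNA 100%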
Reading the numbers: G2 robust z-score: higher = more G2 cells, more excess DNA replication
Active means: 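An siRNA counts as active if its G2 robust z-score lies at least 5 MADs above the screen median; here such calls match roughly 38% of GMNN control or more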
Shown is an unselected part of about 59,000 reagents. About 1,550 of them (2.6%) were called active. 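G2 share is only a proxy for re-replication; each gene was hit by three separate siRNAs, and active genes were retested.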 Entries without a mark were called inactive. Reagents against one gene are numbered here. Further read-outs or replicates are left out here. Not given: the amount of reagent.

The opening 4 records, ahead of the listing:
gene | siRNA no. | G2 robust z-score
RAB13 | 1 | 3.14
RAB13 | 2 | -0.524
RAB13 | 3 | -0.354
KRTAP10-10 | 1 | 8.71 (active)

The listing, from the start:
gene | siRNA no. | G2 robust z-score
RAB13 | 1 | 3.14
RAB13 | 2 | -0.524
RAB13 | 3 | -0.354
KRTAP10-10 | 1 | 8.71 (active)
KRTAP10-10 | 2 | 0.735
KRTAP10-10 | 3 | 0.306
CPN1 | 1 | 6.97 (active)
CPN1 | 2 | 1.96
CPN1 | 3 | 1.76
ETFDH | 1 | 0.21
ETFDH | 2 | -1.02
ETFDH | 3 | -0.323
CENATAC | 1 | -0.502
CENATAC | 2 | 0.169
CENATAC | 3 | -0.0922
OTUB1 | 1 | 2.72
OTUB1 | 2 | -1.07
OTUB1 | 3 | -0.522
BAZ2A | 1 | -0.658
BAZ2A | 2 | 0.681
BAZ2A | 3 | -1.03
MTERF2 | 1 | -0.713
MTERF2 | 2 | -0.162
MTERF2 | 3 | -0.25
HSD17B8 | 1 | -0.777
HSD17B8 | 2 | 0.674
HSD17B8 | 3 | -0.133
ANAPC7 | 1 | -0.0896
ANAPC7 | 2 | 5.24 (active)
ANAPC7 | 3 | -1.15
PRR20A | 1 | -0.231
PRR20A | 2 | -0.592
PRR20A | 3 | -1.27
ADRA2C | 1 | 1.42
ADRA2C | 2 | -1.06
ADRA2C | 3 | 0.855
RFPL4B | 1 | -0.0671
RFPL4B | 2 | -0.129
RFPL4B | 3 | 0.603
DNAJC4 | 1 | 0.385
DNAJC4 | 2 | -0.583
DNAJC4 | 3 | 0.825
TOB1 | 1 | -0.366
TOB1 | 2 | 0.17
TOB1 | 3 | 0.619
SOWAHD | 1 | 1.16
SOWAHD | 2 | -0.619
SOWAHD | 3 | -1.1
